Values from PubChem BioAssay AID1224830 (NIAID, 2016).
The whole screen tested about 18,000 reagents; shown is a part drawn at random. About 2,900 of all reagents (16%) count as active. 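Calls are made per well; low scores hint the gene aids the LPS response, high scores that it dampens it.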 Unmarked entries are inactive. Repeated entries: four replicate wells of each siRNA pool.

Assay: 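Host factors that control LPS-induced TNF expression in human macrophages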 (primary screen)
Cell system: human THP-1 monocytic leukaemia cells, TNF dual-luciferase reporter clone, PMA-differentiated to macrophage-like cells
Knock-down reagent: siRNA pool against human genes, 50 nM
Duration: LPS for 4 h, given about 3 days after siRNA transfection
Treatment: bacterial LPS (TLR4 ligand), 10 ng/ml
Measured: 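TNF firefly reporter luminescence divided by renilla, normalised to the plate median, then turned into a robust z-score for each replicate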
Direction: TNF reporter robust z-score: higher = stronger TNF reporter response to LPS
Rule for the call: 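Each well counts as active if its z-score is over 2.8 or under -1.5; controls are left without a call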

no.	gene knocked down	TNF reporter robust z-score
1	ZPBP	-0.35
2	ZPBP	1.42
3	ZPBP	-0.01
4	ZPBP	0.63
5	FNDC7	-0.23
6	FNDC7	0.42
7	FNDC7	1.32
8	FNDC7	-0.42
9	APOC3	-0.27
10	APOC3	0.29
11	APOC3	-0.37
12	APOC3	-0.17
13	TAF5	1.76
14	TAF5	1.03
15	TAF5	1.27
16	TAF5	1
17	ETFRF1	1.82
18	ETFRF1	1.4
19	ETFRF1	1.52
20	ETFRF1	0.67
21	LRRC23	0.04
22	LRRC23	-0.31
23	LRRC23	1.48
24	LRRC23	0.33
25	TP53I11	-0.67
26	TP53I11	-0.81
27	TP53I11	-1.07
28	TP53I11	-1
29	MT1B	-0.31
30	MT1B	-0.75
31	MT1B	-0.92
32	MT1B	0.38
33	AGAP2	0.34
34	AGAP2	0.79
35	AGAP2	-0.15
36	AGAP2	0.8
37	CCDC88B	2.19
38	CCDC88B	2.3
39	CCDC88B	2.12
40	CCDC88B	1.76
41	TP53INP1	-0.01
42	TP53INP1	1.23
43	TP53INP1	-0.15
44	TP53INP1	1.51
45	NECTIN4	-1.53 (active)
46	NECTIN4	-1.12
47	NECTIN4	-1.55 (active)
48	NECTIN4	-1.18

A stretch from the list above:
no.	gene knocked down	TNF reporter robust z-score
31	MT1B	-0.92
32	MT1B	0.38
33	AGAP2	0.34
